In patent publication US20030113330A1, “Methods for treating pulmonary fibrosis” (priority 1999, published 2003):
Some results were stated once for a whole list of compounds, not compound by compound.

Tested on: A549 cells
Assay: FAS-induced apoptosis (activating anti-FAS antibody CH-11) in A549 cells, ISEL / nuclear fragmentation
Type: cell-based, human
Conditions: cell type not given
Protocol: Cell Culture. […] Cells were seeded on 12 mm sterile glass cover slips in 24-well chambers at a density of 20,000 cells per well.
Fluorescence Detection of Apoptosis. […] J. Physiol. […] In these assays detached cells were retained by centrifugation of the 24-well culture vessels during fixation with 70% ethanol. In situ end-labeling of fragmented DNA (ISEL) was conducted as described in Gorczyka et al., Canc. Res. 53:1945-1951 (1993). Briefly, ethanol was removed by rinsing cover slips in distilled water for at least 10 minutes. […] The sections were rinsed thoroughly five times with Buffer A and three additional times in 0.5 M PBS. Incorporated bio-UTP was detected by incubation for one hour at 37° C. with avidin-rhodamine; the cover slips were then rinsed in distilled water three times and mounted under Fluoromount Solution (Southern Biotechnology Associates, Birmingham, Ala.).
Spontaneous or stimulated apoptosis was quantitated as described in Uhal et al., Am. J. Physiol. 269:L819-L828 (1995), in the human lung epithelial cell line A549 by fluorescence detection of chromatin condensation and nuclear fragmentation. […] Fixed cells were incubated for 30 minutes with 5 ug/ml propidium iodide (PI) in PBS containing DNAse-free RNAse; under these conditions, red fluorescence (>570 nm) is specific for DNA. […] Apoptotic cells were scored by the nuclear morphology assay discussed above. […]

C[C@H](CS)C(=O)N1CCC[C@H]1C(=O)O [captopril]
inhibition of AEC apoptosis in response to Fas: 75-85%
